Several values for one entry are separate records, joined by “and”; a condition that tells them apart may be missing. Equal entries are not always repeated. About 5,500 (1.4%) of roughly 400,000 compounds were called active. Inconclusive results, whose numbers are uncertain, are shown with a selection of clear calls. The call rests on the fitted dose curve; in most records, active means well fitted cell-killing curve with a large enough effect; inconclusive means small, poorly fitted or top-dose-only effect, or effect the other way; inactive means flat fitted curve, though single readings scatter. Potencies of inconclusive entries are doubtful fits and often do not repeat.
Assay: qHTS assay for MDR1-selective chemotherapeutics: Primary screen using the parental adenocarcinoma cell KB-3-1; further: nearly all actives have a fitted effect of over 60% in size
Conditions: KB-3-1 viability, CellTiter-Glo ATP luminescence, 72 h; activity change, negative = cytotoxic: at 46.1 µM (top of the series)
Summary of the method: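 Screening of KB-3-1 cells (DMEM, 10% FBS, phenol-red free) ran from lowest to highest compound concentration; after 72 h at 37 °C viability was read luminescently and curves fitted.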
In the case of Cc1ccc[n+](C(C)C(=O)c2ccc(-c3ccccc3)cc2)c1 (centres undefined), the “activity change, negative = cytotoxic” value is reported as inactive: 0%.
With CCN1C(=O)C(CC(=O)Nc2ccc(OC)cc2)N(CCc2ccccc2)C1=S (centres undefined) the Potency was inconclusive: 20.6 µM [cytotoxic, single point].
In the case of CCCN(CCC)CCCNC(=O)c1cc2c(=O)n(CC)c3ccccc3c2s1, the Potency is reported as active: 23.1 µM.
In the case of CNC(=O)c1c(NC(=O)c2ccco2)sc2c1CCCC2, the “activity change, negative = cytotoxic” value is reported as inactive: 11.9%.
For Cc1noc(C)c1CSCC(=O)Nc1ccc(S(=O)(=O)C(F)F)cc1, the “activity change, negative = cytotoxic” value was inactive: 9.43%.
With O=C(O)/C=C/C(=O)N1CCN(C(=O)/C=C/C(=O)O)CC1 the “activity change, negative = cytotoxic” value was inactive: -0.252%.
With C(=C\c1nc2ccccc2[nH]1)/c1ccccc1 the Potency was active: 18.4 µM.
With COc1cccc(C2CC(c3cccs3)=NN2C(=O)CSc2nc3c(cnn3-c3ccc(F)cc3)c(=O)[nH]2)c1OC (centres undefined) the Potency was inconclusive: 18.4 µM [cytotoxic, single point].
In the case of Cc1cc(N/N=C/c2ccc(O)cc2O)nc(-n2nc(C)cc2C)n1, the Potency is reported as inconclusive: 0.58 µM [cytotoxic, full curve, poor fit].
In the case of Nc1ccccc1C(=O)NC(=O)Nc1ccc(Oc2ncc(Br)cn2)c(Cl)c1, the Potency is reported as active: 0.206 µM.
With CCc1nc(C)c(C(=O)N2CCCC(C(=O)Nc3cccc(-c4cccc(C)c4)c3)C2)o1 (centres undefined) the “activity change, negative = cytotoxic” value was inactive: -16.3%.
In the case of Nc1ccccc1C#CC(=O)c1ccccc1, the Potency is reported as inconclusive: 29.1 µM [cytotoxic, single point].
With COc1ccc(Cn2c(=S)[nH]c3cc(OC)c(OC)cc3c2=O)cc1 the Potency was inconclusive: 23.1 µM [cytotoxic, single point].
For COc1cc(OC)c(CN2CCc3c([nH]c4ccccc34)C2)cc1Br, the Potency was inconclusive: 20.6 µM [cytotoxic, partial curve, poor fit].
With c1ccc(C2(CN3CCNC[C@H]3Cc3cccc4ccccc34)CC2)cc1 the Potency was inconclusive: 29.1 µM [cytotoxic, single point].
In the case of FC(F)(F)c1cc(Oc2ccccc2)nc(-c2ccccn2)n1, the Potency is reported as inconclusive: 29.1 µM [cytotoxic, single point].
For N#C/C(=C/c1ccc(N2CCCCC2)o1)C(=O)Nc1ccc(Cl)cc1, the “activity change, negative = cytotoxic” value was inactive: -0.186%.
For Cc1cnnn1-c1ccc(C(=O)CCl)cc1, the Potency was inconclusive: 29.1 µM [cytotoxic, single point].
In the case of Cc1cccc(N2CCN(C(=O)N3CCOCC3)CC2)c1C, the Potency is reported as active: 20.6 µM.
For Cc1nnsc1C(=O)NNc1c(Cl)cccc1Cl, the “activity change, negative = cytotoxic” value was inactive: 1.89%.
With CCCCn1c(=O)nc2n(-c3ccccc3)c3ccccc3cc-2c1=O the Potency was inconclusive: 16.4 µM [cytotoxic, partial curve, poor fit].
With Cc1ccsc1/C=N/NC(=O)c1nnn(-c2nonc2N)c1-c1ccc2c(c1)OCO2 the Potency was inconclusive: 29.1 µM [rising, single point].
With CCOC(=O)C1CCCN(S(=O)(=O)c2cc3c(cc2Cl)NC(=O)CO3)C1 (centres undefined) the “activity change, negative = cytotoxic” value was inactive: 4.46%.
In the case of Cc1ccc(C)c(N2CCN(C(=O)c3ccc4c(c3)c(C)c(C)n4C)CC2)c1, the Potency is reported as inconclusive: 29.1 µM [cytotoxic, single point].
With CCOC(=O)c1csc(NC(=O)COc2ccc(Cl)cc2Cl)n1 the “activity change, negative = cytotoxic” value was inactive: -10.6%.
For CCCCCCn1nc(C(=O)OCC(=O)NC2CCS(=O)(=O)C2)c2ccccc2c1=O (centres undefined), the Potency was inconclusive: 29.1 µM [cytotoxic, single point].
With COc1ccc(Nc2nnc(-c3ccc(C)c(S(=O)(=O)N4CCN(C)CC4)c3)c3ccccc23)cc1 the Potency was inconclusive: 11.6 µM [cytotoxic, partial curve, poor fit].
In the case of N#Cc1ccccc1OCC(=O)NNC(=O)CCC1CCCC1, the Potency is reported as inconclusive: 25.9 µM [rising, single point].
For Cc1ccccc1NC(=S)NCCC(c1ccccc1)c1ccccc1, the “activity change, negative = cytotoxic” value was inactive: -23.5%.
With S=C(Nc1ccc(Cl)cc1)c1nc2ccccc2[nH]1 the Potency was inconclusive: 3.26 µM [cytotoxic, partial curve, poor fit].
With COc1cc2c(cc1OC)C(COc1ccc3c(C)cc(=O)oc3c1)N(C(=O)c1ccc(C)c(C)c1)CC2 (centres undefined) the “activity change, negative = cytotoxic” value was inactive: -4.71%.
For CN1CCN(C(=O)c2ccc(NS(=O)(=O)c3cccc([N+](=O)[O-])c3)cc2)CC1, the “activity change, negative = cytotoxic” value was inactive: -0.782%.
For Cc1oc2c(c1C(=O)Nc1ccc(Cl)cc1F)C1=NCCN1C=N2, the “activity change, negative = cytotoxic” value was inactive: 1.23%.
In the case of O=[N+]([O-])c1ccc(S(=O)(=O)Nc2cccc(-c3ccc(N4CCOCC4)nn3)c2)cc1, the Potency is reported as inconclusive: 23.1 µM [rising, single point].
For COC(=O)C1(C(F)(F)F)N=C2Sc3ccccc3N2C(N2CCOCC2)=N1 (centres undefined), the Potency was inconclusive: 0.0366 µM [cytotoxic, full curve].
For CCCN(Cc1cccs1)C(=O)Nc1ccccc1C, the “activity change, negative = cytotoxic” value was inactive: -22.4%.
With Cn1c(=O)c2c(nc(NCCc3ccccc3)n2Cc2ccc(Cl)c(Cl)c2)n(C)c1=O the “activity change, negative = cytotoxic” value was inactive: 3.17%.
With Cc1ccc(C(=O)Nc2nc3ccccc3[nH]2)cc1 the Potency was inconclusive: 7.31 µM [cytotoxic, partial curve, poor fit].
For CC(=O)c1cccc(NC(=O)c2ccc(C)c(S(=O)(=O)N3CCOCC3)c2)c1, the “activity change, negative = cytotoxic” value was inactive: -8.62%.
With O=C(Nc1ccc(Cl)c(S(=O)(=O)N2CCOCC2)c1)c1ccc(OCC2CCCO2)cc1 (centres undefined) the Potency was inconclusive: 18.4 µM [cytotoxic, single point].
For O=C(NC1CCCCC1)N1CCCC(c2nc(-c3ccc(S(=O)(=O)N4CCCC4)cc3)no2)C1 (centres undefined), the Potency was inconclusive: 25.9 µM [cytotoxic, partial curve].
For O=C1NC(c2ccc(Cl)c([N+](=O)[O-])c2)Nc2ccccc21 (centres undefined), the Potency was inconclusive: 29.1 µM [cytotoxic, single point].
With COc1cc(C(C[N+](=O)[O-])c2c(N)n(C)c(=O)n(C)c2=O)ccc1O (centres undefined) the Potency was inconclusive: 29.1 µM [cytotoxic, single point].
For COc1ccc(C(CNC(=O)c2cccc(S(=O)(=O)N3CCc4ccccc43)c2)N(C)C)cc1 (centres undefined), the Potency was inconclusive: 18.4 µM [cytotoxic, partial curve, poor fit].
For Cc1ccc(-c2cc(=O)c3cc(F)ccc3[nH]2)cc1, the Potency was inconclusive: 29.1 µM [cytotoxic, single point].
In the case of COC(=O)c1sc(NC(=O)COc2ccccc2C)nc1C, the “activity change, negative = cytotoxic” value is reported as inactive: 0.139%.
With O=S(=O)(NC1CC2CCC1C2)c1ccc(Br)cc1 (centres undefined) the Potency was inconclusive: 18.4 µM [cytotoxic, partial curve, poor fit].
For CCc1cccc(C)c1Nc1c(-c2cccc(O)c2)nc2cnccn12, the “activity change, negative = cytotoxic” value was inactive: -10.1%.
In the case of CCNC(=S)Nc1ccc(Cl)c(C(F)(F)F)c1, the Potency is reported as inconclusive: 16.4 µM [cytotoxic, single point].
In the case of CCCCOc1ccc(C(=O)NCC(=O)N2CC(C)CC(C)C2)cc1 (centres undefined), the Potency is reported as inconclusive: 20.6 µM [cytotoxic, partial curve, poor fit].
With S=C(Nc1ccc(Oc2ccc(NC(=S)NC3CCCCC3)cc2)cc1)NC1CCCCC1 the Potency was inconclusive: 18.4 µM [cytotoxic, single point].
For CCN(CC)S(=O)(=O)c1cc(NC(=O)Cn2ncc(Cl)c(Cl)c2=O)ccc1C, the Potency was inconclusive: 29.1 µM [cytotoxic, single point].
In the case of CCc1n[nH]c(=S)n1/N=C/c1c(O)ccc2ccccc12, the Potency is reported as inconclusive: 18.4 µM [cytotoxic, single point].
For Cn1c(-c2ccc(-c3ccccc3)cc2)c[nH]c1=S, the Potency was inconclusive: 29.1 µM [cytotoxic, single point].
With Cc1cc(C)cc(N(CCC(=O)Nc2nnc(C3CC3)s2)S(=O)(=O)c2ccc(Cl)cc2)c1 the Potency was inconclusive: 29.1 µM [cytotoxic, single point].
With Cc1cc(C)cc(Oc2nc(-c3ccccc3)cc(C)c2S(C)(=O)=O)c1 the Potency was inconclusive: 29.1 µM [cytotoxic, single point].
With O=C(c1ccncc1)N1c2ccccc2Sc2ccccc21 the Potency was inconclusive: 18.4 µM [cytotoxic, single point].
With COCCN(CCOC)S(=O)(=O)c1ccc(C(=O)Nc2sc3c(c2C(N)=O)CCCCC3)cc1 the “activity change, negative = cytotoxic” value was inactive: -2.7%.
With O=C(N=Nc1c(O)[nH]c2ccc([N+](=O)[O-])cc12)c1ccccc1[N+](=O)[O-] the Potency was inconclusive: 25.9 µM [rising, single point].
With C[n+]1c2cc(N)ccc2cc2ccc(N)cc21 the Potency was active: 3.66 µM and active: 10.3 µM.
With CC1CCCN(CCOc2ccc3ccccc3c2Br)C1 (centres undefined) the Potency was inconclusive: 29.1 µM [cytotoxic, single point].
In the case of O=C(c1cc(C(=O)NCCc2ccccc2)c(=O)n(CCc2ccccc2)c1)c1cc(Cl)ccc1O, the Potency is reported as inconclusive: 25.9 µM [cytotoxic, single point].
For COc1ccc(C(C#N)=C2C=CC(=NO)C=C2)cc1, the Potency was inconclusive: 29.1 µM [cytotoxic, single point].
With COc1ccc(C(=O)/C=C/C(=O)N(CC(=O)NC2CCCCC2)Cc2ccccc2OC)c(O)c1 the Potency was inconclusive: 29.1 µM [cytotoxic, single point].
For COc1ccc(N2CCN(C(=O)Cc3noc4ccc(C)cc34)CC2)cc1, the “activity change, negative = cytotoxic” value was inactive: -1.86%.
In the case of COCCN(C(=O)CSc1nn(-c2ccc(F)cc2)c(=S)s1)c1c(N)n(CC(C)C)c(=O)[nH]c1=O, the Potency is reported as inconclusive: 29.1 µM [rising, single point].
With O=C1[C@@H]2[C@H]3CC[C@H](C3)[C@@H]2C(=O)N1O the “activity change, negative = cytotoxic” value was inactive: 4.41%.
With CCc1ccc(NC(=O)Cn2ccn(-c3cccc(Cl)c3)c(=O)c2=O)cc1 the Potency was inconclusive: 20.6 µM [cytotoxic, partial curve, poor fit].

Reference: PubChem BioAssay AID1347075 (National Center for Advancing Translational Sciences (NCATS), 2019)
On the % scale 0 is the no-effect control and ±100 the full control effect; potency means the concentration at half of the fitted maximal effect.
